Laboratory results as given in the supplement of paper PMC10849652.
This is one part of the list.

Amino acid sequences for entries named in this document (tags omitted). A change or cut given only in a name is not applied to a line headed by its entry.
UniProt O75063: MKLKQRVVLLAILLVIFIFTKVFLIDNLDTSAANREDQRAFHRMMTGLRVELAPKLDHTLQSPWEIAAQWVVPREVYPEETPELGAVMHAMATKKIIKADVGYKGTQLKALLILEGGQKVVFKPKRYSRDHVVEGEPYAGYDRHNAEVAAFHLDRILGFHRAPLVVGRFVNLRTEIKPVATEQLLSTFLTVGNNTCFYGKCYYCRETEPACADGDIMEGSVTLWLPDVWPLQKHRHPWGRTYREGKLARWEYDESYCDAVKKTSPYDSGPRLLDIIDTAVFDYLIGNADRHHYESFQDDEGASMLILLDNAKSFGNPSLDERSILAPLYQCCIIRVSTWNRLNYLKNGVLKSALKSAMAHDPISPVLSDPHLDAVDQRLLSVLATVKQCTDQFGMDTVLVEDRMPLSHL
UniProt Q96B26, whole entry, looked up: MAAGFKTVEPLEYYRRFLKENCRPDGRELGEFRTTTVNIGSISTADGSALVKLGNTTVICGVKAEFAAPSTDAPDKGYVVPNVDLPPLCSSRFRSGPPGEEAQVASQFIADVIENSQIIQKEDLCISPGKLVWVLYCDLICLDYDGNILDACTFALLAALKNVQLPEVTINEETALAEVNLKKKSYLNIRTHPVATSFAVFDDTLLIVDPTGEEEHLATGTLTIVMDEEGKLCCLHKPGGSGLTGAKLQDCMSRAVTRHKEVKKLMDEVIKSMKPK
UniProt Q9UPT5: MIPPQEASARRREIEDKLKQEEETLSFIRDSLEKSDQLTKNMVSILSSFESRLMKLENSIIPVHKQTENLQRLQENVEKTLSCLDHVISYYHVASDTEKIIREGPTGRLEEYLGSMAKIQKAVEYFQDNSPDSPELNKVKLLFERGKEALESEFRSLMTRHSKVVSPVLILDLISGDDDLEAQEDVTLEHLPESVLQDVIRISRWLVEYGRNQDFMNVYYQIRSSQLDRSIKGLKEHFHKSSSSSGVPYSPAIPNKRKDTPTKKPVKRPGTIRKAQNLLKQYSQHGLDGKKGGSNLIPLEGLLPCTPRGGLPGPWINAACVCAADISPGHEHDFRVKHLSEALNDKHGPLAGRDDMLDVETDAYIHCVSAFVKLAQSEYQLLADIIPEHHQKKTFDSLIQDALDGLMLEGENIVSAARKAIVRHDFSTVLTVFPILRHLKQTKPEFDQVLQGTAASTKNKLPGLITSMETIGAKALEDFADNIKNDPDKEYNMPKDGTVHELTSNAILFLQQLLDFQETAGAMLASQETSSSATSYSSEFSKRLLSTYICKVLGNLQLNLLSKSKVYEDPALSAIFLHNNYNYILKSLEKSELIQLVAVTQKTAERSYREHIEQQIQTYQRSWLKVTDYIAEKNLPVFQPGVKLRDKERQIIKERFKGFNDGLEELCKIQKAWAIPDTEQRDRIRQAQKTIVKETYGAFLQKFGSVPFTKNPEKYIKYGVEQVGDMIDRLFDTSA
UniProt O95571: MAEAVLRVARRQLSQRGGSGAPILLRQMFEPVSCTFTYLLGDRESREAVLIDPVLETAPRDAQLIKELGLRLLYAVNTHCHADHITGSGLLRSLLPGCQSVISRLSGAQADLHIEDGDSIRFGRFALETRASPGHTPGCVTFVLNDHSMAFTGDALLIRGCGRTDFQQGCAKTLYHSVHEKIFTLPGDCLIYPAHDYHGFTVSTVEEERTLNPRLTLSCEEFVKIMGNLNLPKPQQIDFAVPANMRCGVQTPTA
UniProt Q5W0V3: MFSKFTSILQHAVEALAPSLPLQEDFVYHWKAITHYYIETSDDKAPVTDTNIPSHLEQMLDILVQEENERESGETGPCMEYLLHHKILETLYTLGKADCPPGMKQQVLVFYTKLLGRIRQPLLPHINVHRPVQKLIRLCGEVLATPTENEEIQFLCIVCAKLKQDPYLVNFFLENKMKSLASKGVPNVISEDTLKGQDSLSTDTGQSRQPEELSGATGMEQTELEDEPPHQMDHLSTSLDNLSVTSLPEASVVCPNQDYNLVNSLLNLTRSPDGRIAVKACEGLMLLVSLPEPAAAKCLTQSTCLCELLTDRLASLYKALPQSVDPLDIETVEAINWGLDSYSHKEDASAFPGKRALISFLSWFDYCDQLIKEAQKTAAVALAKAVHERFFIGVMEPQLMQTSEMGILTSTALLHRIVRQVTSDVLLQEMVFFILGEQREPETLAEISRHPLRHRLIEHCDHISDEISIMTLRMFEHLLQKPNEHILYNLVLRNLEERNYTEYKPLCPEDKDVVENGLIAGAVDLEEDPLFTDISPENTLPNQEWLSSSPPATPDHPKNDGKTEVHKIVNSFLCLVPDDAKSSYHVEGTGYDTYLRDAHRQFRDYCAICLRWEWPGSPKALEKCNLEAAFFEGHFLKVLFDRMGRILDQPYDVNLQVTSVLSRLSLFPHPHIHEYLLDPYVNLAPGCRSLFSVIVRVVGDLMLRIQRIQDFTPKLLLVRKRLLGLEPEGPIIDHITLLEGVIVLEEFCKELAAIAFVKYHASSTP
UniProt Q96DF8: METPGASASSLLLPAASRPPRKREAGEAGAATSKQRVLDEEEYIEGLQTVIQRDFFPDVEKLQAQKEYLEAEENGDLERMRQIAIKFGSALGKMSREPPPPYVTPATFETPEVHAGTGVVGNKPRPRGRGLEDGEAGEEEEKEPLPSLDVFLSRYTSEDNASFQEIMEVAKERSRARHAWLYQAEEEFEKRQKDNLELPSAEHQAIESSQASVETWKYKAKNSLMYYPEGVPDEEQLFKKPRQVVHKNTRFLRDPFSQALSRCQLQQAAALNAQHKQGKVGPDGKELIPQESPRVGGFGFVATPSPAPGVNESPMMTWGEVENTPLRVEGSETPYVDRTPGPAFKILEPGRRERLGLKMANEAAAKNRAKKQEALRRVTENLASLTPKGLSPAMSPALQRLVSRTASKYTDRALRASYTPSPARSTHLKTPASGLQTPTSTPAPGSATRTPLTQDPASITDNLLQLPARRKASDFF
UniProt Q9NSI2: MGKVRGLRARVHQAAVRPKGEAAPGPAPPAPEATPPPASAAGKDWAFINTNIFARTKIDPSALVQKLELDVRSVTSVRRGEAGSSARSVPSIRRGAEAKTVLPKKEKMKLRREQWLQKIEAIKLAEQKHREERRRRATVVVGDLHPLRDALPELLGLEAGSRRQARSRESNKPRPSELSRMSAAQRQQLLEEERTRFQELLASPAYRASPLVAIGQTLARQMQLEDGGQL
UniProt Q8TBG4: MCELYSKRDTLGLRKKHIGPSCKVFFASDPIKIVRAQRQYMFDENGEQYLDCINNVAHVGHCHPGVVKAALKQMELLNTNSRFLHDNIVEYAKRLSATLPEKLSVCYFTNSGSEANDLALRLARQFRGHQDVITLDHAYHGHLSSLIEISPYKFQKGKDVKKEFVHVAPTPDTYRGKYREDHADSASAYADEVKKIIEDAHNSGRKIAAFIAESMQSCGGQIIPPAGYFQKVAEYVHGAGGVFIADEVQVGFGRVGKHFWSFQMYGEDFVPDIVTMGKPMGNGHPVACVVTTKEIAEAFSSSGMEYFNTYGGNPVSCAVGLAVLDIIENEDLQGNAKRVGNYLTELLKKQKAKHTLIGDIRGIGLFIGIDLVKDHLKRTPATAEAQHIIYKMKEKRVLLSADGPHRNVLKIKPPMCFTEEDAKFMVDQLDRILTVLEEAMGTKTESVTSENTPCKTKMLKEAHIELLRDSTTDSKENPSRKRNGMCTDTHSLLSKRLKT
UniProt Q92889: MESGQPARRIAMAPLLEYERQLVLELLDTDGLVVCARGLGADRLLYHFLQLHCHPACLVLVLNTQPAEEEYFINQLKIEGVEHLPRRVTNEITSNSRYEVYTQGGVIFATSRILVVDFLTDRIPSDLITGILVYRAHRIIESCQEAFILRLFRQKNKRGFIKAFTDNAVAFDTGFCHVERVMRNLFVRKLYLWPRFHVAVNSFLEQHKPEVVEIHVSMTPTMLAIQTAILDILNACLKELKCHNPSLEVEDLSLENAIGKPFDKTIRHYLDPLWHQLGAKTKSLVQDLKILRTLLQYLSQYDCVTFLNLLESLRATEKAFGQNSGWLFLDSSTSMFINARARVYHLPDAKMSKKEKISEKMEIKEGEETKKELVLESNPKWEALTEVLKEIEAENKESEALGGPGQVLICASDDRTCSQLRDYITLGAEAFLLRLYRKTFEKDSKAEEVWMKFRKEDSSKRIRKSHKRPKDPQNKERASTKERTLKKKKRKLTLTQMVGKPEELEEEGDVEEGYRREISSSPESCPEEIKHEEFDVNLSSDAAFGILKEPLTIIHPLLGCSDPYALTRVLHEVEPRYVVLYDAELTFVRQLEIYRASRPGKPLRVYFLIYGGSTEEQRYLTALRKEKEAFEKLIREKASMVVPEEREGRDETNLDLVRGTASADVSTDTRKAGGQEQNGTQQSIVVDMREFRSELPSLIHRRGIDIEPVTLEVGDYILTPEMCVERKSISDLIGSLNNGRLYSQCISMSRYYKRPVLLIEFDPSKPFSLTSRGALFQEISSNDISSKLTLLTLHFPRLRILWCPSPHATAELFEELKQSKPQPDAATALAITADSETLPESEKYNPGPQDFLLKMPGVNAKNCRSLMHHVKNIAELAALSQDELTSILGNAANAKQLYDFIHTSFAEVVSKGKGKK
UniProt Q96RQ1: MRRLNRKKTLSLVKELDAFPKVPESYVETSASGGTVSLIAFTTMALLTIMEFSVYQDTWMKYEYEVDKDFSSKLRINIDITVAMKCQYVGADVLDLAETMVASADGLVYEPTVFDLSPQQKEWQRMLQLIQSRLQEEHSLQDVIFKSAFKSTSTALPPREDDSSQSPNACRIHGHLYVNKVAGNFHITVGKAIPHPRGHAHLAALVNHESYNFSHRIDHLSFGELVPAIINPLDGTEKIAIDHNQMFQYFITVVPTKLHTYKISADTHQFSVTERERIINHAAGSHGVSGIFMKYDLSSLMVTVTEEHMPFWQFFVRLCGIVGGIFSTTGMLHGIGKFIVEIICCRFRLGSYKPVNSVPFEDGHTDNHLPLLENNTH
UniProt Q96CS3: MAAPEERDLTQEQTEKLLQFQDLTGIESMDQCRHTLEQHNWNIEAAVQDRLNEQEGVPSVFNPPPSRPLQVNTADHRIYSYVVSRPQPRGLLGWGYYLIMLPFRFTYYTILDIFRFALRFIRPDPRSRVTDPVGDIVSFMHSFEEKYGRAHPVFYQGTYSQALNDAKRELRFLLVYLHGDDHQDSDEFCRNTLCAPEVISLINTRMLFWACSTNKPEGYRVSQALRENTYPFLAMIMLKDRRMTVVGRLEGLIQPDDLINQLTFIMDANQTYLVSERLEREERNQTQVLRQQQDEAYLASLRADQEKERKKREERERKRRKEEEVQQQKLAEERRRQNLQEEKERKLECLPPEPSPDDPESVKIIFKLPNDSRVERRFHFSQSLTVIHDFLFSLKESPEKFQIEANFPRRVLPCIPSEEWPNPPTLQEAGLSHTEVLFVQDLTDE
UniProt Q6P587: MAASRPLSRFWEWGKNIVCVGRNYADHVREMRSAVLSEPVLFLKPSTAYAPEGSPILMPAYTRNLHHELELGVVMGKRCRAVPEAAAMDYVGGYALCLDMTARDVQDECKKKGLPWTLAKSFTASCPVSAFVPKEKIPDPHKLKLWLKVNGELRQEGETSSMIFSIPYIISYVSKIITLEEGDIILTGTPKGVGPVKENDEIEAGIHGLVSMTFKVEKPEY
UniProt Q6IPR1: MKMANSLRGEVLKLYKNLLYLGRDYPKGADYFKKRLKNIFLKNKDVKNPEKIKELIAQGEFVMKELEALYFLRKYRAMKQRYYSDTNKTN
UniProt Q9NQT5, whole entry, looked up: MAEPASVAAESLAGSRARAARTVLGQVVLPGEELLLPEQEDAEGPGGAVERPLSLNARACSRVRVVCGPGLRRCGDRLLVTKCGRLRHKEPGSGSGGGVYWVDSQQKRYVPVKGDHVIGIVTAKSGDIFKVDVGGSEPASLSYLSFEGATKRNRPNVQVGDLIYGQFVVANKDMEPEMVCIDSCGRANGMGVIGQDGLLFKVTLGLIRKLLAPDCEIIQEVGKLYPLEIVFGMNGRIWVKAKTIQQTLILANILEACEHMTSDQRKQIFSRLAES
UniProt P15311, whole entry, looked up: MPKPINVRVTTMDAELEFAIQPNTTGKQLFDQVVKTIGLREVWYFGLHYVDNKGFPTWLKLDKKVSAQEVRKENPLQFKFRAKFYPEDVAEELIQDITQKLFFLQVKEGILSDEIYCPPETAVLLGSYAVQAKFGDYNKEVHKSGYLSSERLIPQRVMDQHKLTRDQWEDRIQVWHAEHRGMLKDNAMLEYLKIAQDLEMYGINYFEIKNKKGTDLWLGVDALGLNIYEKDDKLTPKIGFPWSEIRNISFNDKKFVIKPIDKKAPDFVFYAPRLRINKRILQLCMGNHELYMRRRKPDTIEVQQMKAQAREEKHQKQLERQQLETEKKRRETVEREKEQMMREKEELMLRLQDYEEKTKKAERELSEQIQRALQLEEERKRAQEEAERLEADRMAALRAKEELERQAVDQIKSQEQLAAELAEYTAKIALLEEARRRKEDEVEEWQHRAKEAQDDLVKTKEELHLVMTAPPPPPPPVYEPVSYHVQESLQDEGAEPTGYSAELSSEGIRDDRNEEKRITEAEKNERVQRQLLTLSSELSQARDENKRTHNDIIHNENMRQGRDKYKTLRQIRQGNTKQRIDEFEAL

Experiments:
Assay in all cases: log2 fold change, soluble protein after heating vs DMSO (PISA); higher = thermal stabilisation; K562 cells, 10 uM, 30 min; active = over 0.2 and 3.5 SD of the protein, either way, in both replicates (recomputed)
erlotinib = compound: C#Cc1cccc(Nc2ncnc3cc(OCCOC)c(OCCOC)cc23)c1 [erlotinib]
Procedure, shortened: (§1)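 Thermal stability values are relative to control samples and come from duplicates. They are expressed as log2 fold changes. For measurement, K562 cells (2×10^6 cells/mL) received 10 μM compound for 30 min, and aliquots were heated for 3 min over 48°C-58°C, pooled, and extracted at 4°C in PBS with 0.5% NP-40. Soluble protein, the supernatant after 21,000xg for 90 min, was quantified by TMTpro 16plex LC-MS/MS with equalised channel sums.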

[1] = compound: C/C(=N\NC(=O)C1=CC(=CC=C1)S(=O)(=O)N2CCOCC2)/C3=C(C=CC(=C3)Cl)O
Procedure, shortened: as §1

[2] = compound: C1=CC(=C(C=C1Cl)C2=NC3=NC=CN=C3C(=N2)NC4=CC=NC=C4)F
Procedure, shortened: as §1

[3] = compound: C1=CC(=CC=C1C2=NC3=C(N2)C=C(C=C3)C(=O)N)OC4=CC=C(C=C4)Cl
Procedure, shortened: as §1

[4] = compound: C1=CC2=C(C=CC(=C2)/C=C\3/C(=O)NC(=NCC4=CC=CS4)S3)N=C1
Procedure, shortened: as §1

[5] = compound: C1=CC2=NC=CN=C2C=C1/C=C/3\C(=O)NC(=O)S3
Procedure, shortened: as §1

[6] = compound: C1=CC=C(C=C1)C2=NC(=C(N2)C3=CC=NC=C3)C4=CC(=C(C=C4)Cl)O
Procedure, shortened: as §1

[7] = compound: C1=CC=C2C(=C1)C3=NNC4=CC=CC(=C43)C2=O
Procedure, shortened: as §1

[8] = compound: C1CCN(C1)C(=O)NC2=CC=CC(=C2)NC3=NC=C(C(=N3)NCCC4=CN=CN4)Br
Procedure, shortened: as §1

[9] = compound: C1CN(CCC1(CC2=CC=C(C=C2)Cl)N)C3=NC=NC4=C3C=CN4
Procedure, shortened: as §1

Measured: log2 fold change

FAM20B (UniProt O75063)
inactive: erlotinib -0.03 | [1] 0.087 | [2] -0.022 | [3] -0.006 | [4] -0.033 | [5] -0.027 | [6] 0.044 | [7] 0.058 | [8] -0.012 | [9] 0.034

EXOSC8 (UniProt Q96B26)
inactive: erlotinib -0.086 | [1] -0.023 | [2] -0.012 | [3] 0.019 | [4] -0.087 | [5] 0.001 | [6] 0.006 | [7] -0.016 | [8] 0.016 | [9] 0.026

EXOC7 (UniProt Q9UPT5)
inactive: erlotinib 0.032 | [1] 0.074 | [2] 0.001 | [3] -0.042 | [4] 0.048 | [5] 0.016 | [6] 0.011 | [7] -0.016 | [8] -0.023 | [9] -0.014

FAM192A (UniProt Q9GZU8)
inactive: erlotinib 0.006 | [1] -0.007 | [2] 0.018 | [3] 0.02 | [4] 0.006 | [5] 0.027 | [6] -0.047 | [7] -0.049 | [8] 0.019 | [9] 0.037

EPN2 (UniProt O95208)
inactive: erlotinib 0.016 | [1] 0.051 | [2] -0.006 | [3] -0.003 | [4] 0.076 | [5] -0.011 | [6] 0.082 | [7] -0.026 | [8] -0.028 | [9] -0.055

ERI3 (UniProt O43414)
inactive: erlotinib 0.038 | [1] 0.05 | [2] 0.074 | [3] 0.035 | [4] 0.029 | [5] 0.028 | [6] 0.016 | [7] -0.04 | [8] 0.028 | [9] -0.028

EPB41L3 (UniProt Q9Y2J2)
inactive: erlotinib -0.034 | [1] 0.071 | [2] 0.011 | [3] 0.081 | [4] -0.025 | [5] 0.014 | [6] -0.014 | [7] -0.087 | [8] -0.02 | [9] 0

ETHE1 (UniProt O95571)
inactive: erlotinib 0.038 | [1] -0.02 | [2] 0.048 | [3] 0.027 | [4] 0.025 | [5] 0.04 | [6] 0.023 | [7] -0.023 | [8] -0.003 | [9] 0.014

ESD (UniProt P10768)
inactive: erlotinib -0.02 | [1] -0.027 | [2] 0.011 | [3] 0.011 | [4] -0.02 | [5] 0.008 | [6] -0.026 | [7] -0.033 | [8] -0.008 | [9] 0.012

ERO1A (UniProt Q96HE7)
inactive: erlotinib -0.012 | [1] -0.004 | [2] 0.001 | [3] 0.012 | [4] 0.005 | [5] 0.018 | [6] -0.017 | [7] 0.008 | [8] 0.009 | [9] -0.025

FAM160B1 (UniProt Q5W0V3)
inactive: erlotinib 0.034 | [1] 0.085 | [2] 0.012 | [3] -0.007 | [4] 0.019 | [5] 0.037 | [6] -0.005 | [7] 0 | [8] -0.035 | [9] -0.021

ESS2 (UniProt Q96DF8)
inactive: erlotinib -0.057 | [1] -0.05 | [2] -0.013 | [3] 0.046 | [4] -0.083 | [5] 0.04 | [6] -0.055 | [7] -0.071 | [8] -0.008 | [9] 0.096

EXOC6 (UniProt Q8TAG9)
inactive: erlotinib 0.073 | [1] 0.127 | [2] 0.006 | [3] -0.025 | [4] 0.096 | [5] 0.076 | [6] 0.069 | [7] 0.003 | [8] -0.045 | [9] -0.042

FADD (UniProt Q13158)
inactive: erlotinib 0.086 | [1] 0.018 | [2] 0.048 | [3] -0.063 | [4] 0.08 | [5] 0.079 | [6] -0.008 | [7] 0.07 | [8] 0.034 | [9] 0.011

ETFB (UniProt P38117)
inactive: erlotinib 0.05 | [1] -0.026 | [2] 0.071 | [3] -0.057 | [4] -0.016 | [5] 0.009 | [6] 0.006 | [7] 0.013 | [8] 0.056 | [9] 0.022

EPHX2 (UniProt P34913)
inactive: erlotinib -0.01 | [1] 0.213 | [2] -0.008 | [3] 0.2 | [4] 0.09 | [5] -0.004 | [6] 0.038 | [7] -0.032 | [8] 0.123 | [9] -0.001

FAM207A (UniProt Q9NSI2)
inactive: erlotinib -0.082 | [1] -0.092 | [2] -0.039 | [3] -0.032 | [4] -0.204 | [5] -0.018 | [6] -0.027 | [7] 0.006 | [8] -0.159 | [9] -0.054

ERLIN1 (UniProt O75477)
inactive: erlotinib -0.081 | [1] 0.013 | [2] -0.097 | [3] -0.001 | [4] -0.015 | [5] -0.011 | [6] -0.006 | [7] -0.047 | [8] 0.008 | [9] -0.124

ETNPPL (UniProt Q8TBG4)
inactive: erlotinib -0.225 | [1] 0.019 | [2] 0.052 | [3] 0.104 | [4] 0.106 | [5] -0.013 | [6] -0.133 | [7] -0.186 | [8] 0.09 | [9] 0.111

ERCC4 (UniProt Q92889)
inactive: erlotinib 0.093 | [1] 0.005 | [2] 0.012 | [3] -0.045 | [4] 0.123 | [5] 0.023 | [6] 0.045 | [7] 0 | [8] 0.214 | [9] -0.162

Pulled one by one from the list above (2):
FAM207A (UniProt Q9NSI2)
inactive: erlotinib -0.082 | [1] -0.092 | [2] -0.039 | [3] -0.032 | [4] -0.204 | [5] -0.018 | [6] -0.027 | [7] 0.006 | [8] -0.159 | [9] -0.054

ERCC4 (UniProt Q92889)
inactive: erlotinib 0.093 | [1] 0.005 | [2] 0.012 | [3] -0.045 | [4] 0.123 | [5] 0.023 | [6] 0.045 | [7] 0 | [8] 0.214 | [9] -0.162

Further results follow:

ERGIC2 (UniProt Q96RQ1)
inactive: erlotinib 0.033 | [1] 0.076 | [2] 0.011 | [3] 0.04 | [4] 0.082 | [5] 0.028 | [6] 0.003 | [7] -0.037 | [8] 0.037 | [9] 0.064

FAF2 (UniProt Q96CS3)
inactive: erlotinib 0.009 | [1] 0.078 | [2] -0.003 | [3] 0.02 | [4] 0.049 | [5] 0.03 | [6] 0.15 | [7] 0.009 | [8] 0.035 | [9] 0.004

F2 (UniProt P00734)
inactive: erlotinib 0.011 | [1] -0.209 | [2] -0.017 | [3] -0.018 | [4] 0.079 | [5] -0.053 | [6] -0.08 | [7] -0.112 | [8] 0.09 | [9] 0.112

FAHD1 (UniProt Q6P587)
inactive: erlotinib 0.009 | [1] -0.016 | [2] 0.064 | [3] 0.014 | [4] -0.012 | [5] 0.041 | [6] -0.02 | [7] 0.044 | [8] -0.033 | [9] 0.011

ETFRF1 (UniProt Q6IPR1)
inactive: erlotinib 0.063 | [1] -0.032 | [2] -0.043 | [3] 0.025 | [4] 0.179 | [5] 0.066 | [6] 0.059 | [7] 0.023 | [8] 0.016 | [9] -0.102

EXOSC3 (UniProt Q9NQT5)
inactive: erlotinib 0.012 | [1] 0.033 | [2] -0.028 | [3] 0.013 | [4] -0.007 | [5] 0.009 | [6] -0.03 | [7] -0.047 | [8] 0.008 | [9] 0.022

EZR (UniProt P15311)
inactive: erlotinib -0.042 | [1] 0.058 | [2] 0.035 | [3] -0.023 | [4] 0.004 | [5] 0.015 | [6] 0.02 | [7] 0.022 | [8] -0.003 | [9] -0.022

ESYT1 isoform 2 (UniProt Q9BSJ8)
inactive: erlotinib 0.039 | [1] 0.081 | [2] -0.016 | [3] -0.05 | [4] 0.035 | [5] -0.069 | [6] -0.042 | [7] 0.043 | [8] -0.11 | [9] -0.092

EXT2 isoform 3 (UniProt Q93063)
inactive: erlotinib -0.018 | [1] 0.049 | [2] -0.1 | [3] 0.035 | [4] -0.021 | [5] 0 | [6] -0.039 | [7] -0.024 | [8] -0.001 | [9] -0.013
